Data: patent US20180141989A1 (BOARD OF REGENTS OF THE UNIVERSITY OF OKLAHOMA, published 2018)

Target: MBP-RAMP1 ECD-(GS)5-CLR ECD-H6 fusion protein (human)
Assay: FP (anisotropy) competition: displaces FITC-Ahx-AM(37-52)NH2[S45W,Q50W] probe (7 nM) from MBP-RAMP1 ECD-(GS)5-CLR ECD-H6 (15 nM) [I-J) lower graph]

binding	Binder
binds	DKWNVAPRSKISPWGY (C-terminal amide) [AM(37-52) D39W/Q50W]
binds	VKDNVAPRWLISPWGF (C-terminal amide) [AM(37-52) D37V/S45W/K46L/Q50W/Y52F]

Target: MBP-RAMP1 ECD-(GS)5-CLR ECD-H6 fusion protein (human)
Assay: FP (anisotropy) competition: displaces FITC-Ahx-AM(37-52)NH2[S45W,Q50W] probe (7 nM) from MBP-RAMP1 ECD-(GS)5-CLR ECD-H6 (15 nM) [F-H) panel F]

binding	Binder
binds	DKDNVAPRWLIGPWGF (C-terminal amide) [AM(37-52)NH2 [S45W, K46L, S48G, Q50W, Y52F]]
binds	DKDNVAPRTWISPWGY (C-terminal amide) [AM(37-52)NH2[S45T, K46W, Q50W]]
binds	DKDNVAPRTLISPWGY (C-terminal amide) [AM(37-52)NH2[S45T, K46L, Q50W]]

Target: MBP-RAMP1 ECD-(GS)5-CLR ECD-H6 fusion protein (human)
Assay: FP (anisotropy) competition: displaces FITC-Ahx-AM(37-52)NH2[S45W,Q50W] probe (7 nM) from MBP-RAMP1 ECD-(GS)5-CLR ECD-H6 (15 nM) [A-C) panel C]

binding	Binder
binds	FVPTDVGPWSY (C-terminal amide) [CGRP(27-37)NH2 [N31D, S34P, K35W, A36S, F37Y]]
binds	DKDNVAPRSLISPWGY (C-terminal amide) [AM(37-52)NH2 [K46L, Q50W]]
binds	DKDNVAPRSLISPWGF (C-terminal amide) [AM(37-52)NH2 [K46L, Q50W, Y52F]]
binds	DKKNVAPRSKISPQGY (C-terminal amide) [AM(37-52)NH2 [D39K]]
binds	FVPTDVGPWSF (C-terminal amide) [CGRP(27-37)NH2 [N31D, S34P, K35W, A36S]]

Target: MBP-RAMP1 ECD-(GS)5-CLR ECD-H6 fusion protein (human)
Assay: FP (anisotropy) competition: displaces FITC-Ahx-AM(37-52)NH2[S45W,Q50W] probe (7 nM) from MBP-RAMP1 ECD-(GS)5-CLR ECD-H6 (15 nM) [A-C) panel B]

Binder	binding
FVPTDVGPWAF (C-terminal amide) [CGRP(27-37)NH2 [N31D, S34P, K35W]]	binds
FVPTDVGPFSF (C-terminal amide) [CGRP(27-37)NH2 [N31D, S34P, K35F, A36S]]	binds
DKDNVAPRSKISPFGY (C-terminal amide) [AM(37-52)NH2 [Q50F]]	binds

The next lines start with the values.

binding	Binder
binds	DKDNVAPRSKISPWGY (C-terminal amide) [AM(37-52)NH2 [Q50W]]
binds	DKDNVAPRWKISPWGY (C-terminal amide) [AM(37-52)NH2 [S45W, Q50W]]

Target: MBP-RAMP1 ECD-(GS)5-CLR ECD-H6 fusion protein (human)
Assay: FP (anisotropy) competition: displaces FITC-Ahx-AM(37-52)NH2[S45W,Q50W] probe (7 nM) from MBP-RAMP1 ECD-(GS)5-CLR ECD-H6 (15 nM) [F-H) panel G]

binding	Binder
binds	DKDNVAPRWLMSPWGF (C-terminal amide) [AM(37-52)NH2 [S45W, K46L, I47M, Q50W, Y52F]]

Target: MBP-RAMP1 ECD-(GS)5-CLR ECD-H6 fusion protein (human)
Assay: FP (anisotropy) competition: displaces FITC-Ahx-AM(37-52)NH2[S45W,Q50W] probe (7 nM) from MBP-RAMP1 ECD-(GS)5-CLR ECD-H6 (15 nM) [I-J) upper graph]

binding	Binder
binds	DKDNVAPRRWLGPWGY (C-terminal amide) [AM(37-52) S45R/K46W/I47L/S48G/Q50W]
binds	DKDNVAPRRWIGPWGY (C-terminal amide) [AM(37-52) S45R/K46W/S48G/Q50W]
binds	DKDNVAPRRLIGPWGY (C-terminal amide) [AM(37-52) S45R/K46L/S48G/Q50W]

Target: MBP-RAMP1 ECD-(GS)5-CLR ECD-H6 fusion protein (human)
Assay: FP competition

binding	Binder
binds	FVPTDTGPWSF (C-terminal amide) [CGRP(27-37)NH2 [N31D, V32T, S34P, K35W, A36S]]
binds	DKDNVAPRWKISPWGY (C-terminal amide) [AM(37-52)NH2 [S45W, Q50W]]

Target: MBP-RAMP1 ECD-(GS)5-CLR ECD-H6 fusion protein (human)
Assay: FP (anisotropy) competition: displaces FITC-Ahx-AM(37-52)NH2[S45W,Q50W] probe (7 nM) from MBP-RAMP1 ECD-(GS)5-CLR ECD-H6 (15 nM) [D-E) panel E]

binding	Binder
binds	DKDNVAPRWMISPWGF (C-terminal amide) [AM(37-52)NH2 [S45W, K46M, Q50W, Y52F]]
binds	FVPTDTGPWSF (C-terminal amide) [CGRP(27-37)NH2 [N31D, V32T, S34P, K35W, A36S]]
binds	DKDNVAPRWWISPWGF (C-terminal amide) [AM(37-52)NH2 [S45W, K46W, Q50W, Y52F]]

Target: MBP-RAMP1 ECD-(GS)5-CLR ECD-H6 fusion protein (human)
Assay: FP (anisotropy) competition: displaces FITC-Ahx-AM(37-52)NH2[S45W,Q50W] probe (7 nM) from MBP-RAMP1 ECD-(GS)5-CLR ECD-H6 (15 nM) [D-E) panel D]

binding	Binder
binds	FVPTDTGPWGY (C-terminal amide) [CGRP(27-37)NH2 [N31D, V32T, S34P, K35W, A36G, F37Y]]
binds	DKFNVAPRSLISPWGY (C-terminal amide) [AM(37-52)NH2 [D39F, K46L, Q50W]]
binds	DKDNVAPRWLISPWGF (C-terminal amide) [AM(37-52)NH2 [S45W, K46L, Q50W, Y52F]]
binds	DKFNVAPRSLISPWGF (C-terminal amide) [AM(37-52)NH2 [D39F, K46L, Q50W, Y52F]]
binds	FVPTDTGPWGF (C-terminal amide) [CGRP(27-37)NH2 [N31D, V32T, S34P, K35W, A36G]]

Target: MBP-RAMP1 ECD-(GS)5-CLR ECD-H6 fusion protein (human)
Assay: AlphaLISA competition vs Biotin-CGRP probe

binding	Binder
binds	DKDNVAPRSKISPWGY (C-terminal amide) [AM(37-52)NH2 [Q50W]]
binds	DKDNVAPRWKISPWGY (C-terminal amide) [AM(37-52)NH2 [S45W, Q50W]]

Target: MBP-RAMP1 ECD-(GS)5-CLR ECD-H6 fusion protein (human)
Assay: FP (anisotropy) competition: displaces FITC-Ahx-AM(37-52)NH2[S45W,Q50W] probe (7 nM) from MBP-RAMP1 ECD-(GS)5-CLR ECD-H6 (15 nM) [F-H) panel H]

binding	Binder
binds	DKDNVAPRRWISPWGY (C-terminal amide) [AM(37-52) S45R/K46W/Q50W]
binds	DKDNVAPRRLISPWGY (C-terminal amide) [AM(37-52) S45R/K46L/Q50W]

No constants are given. Whether binding was seen depends on the method and setting. A result given as binding can be weak or reduced; the word gives no strength.
